Laboratory results from patent US20190202774A1, “BIARYL COMPOUNDS AS ANTIMICROBIAL AND CHEMOTHERAPEUTIC AGENTS” (priority 2015, published 2019).
Some results were stated once for a whole list of compounds, not compound by compound. At least one compound was matched to its structure with a doubt left.

How the values were obtained:
[1] = test system: S. epidermidis (M0881); experiment: Library screen, CLSI broth microdilution, S. epidermidis; assay type: cell-based, Staphylococcus epidermidis; conditions: screen against S. epidermidis
[2] = test system: S. pyogenes (NR33709); experiment: Library screen, CLSI broth microdilution, S. pyogenes; assay type: cell-based, Streptococcus pyogenes; conditions: screen against S. pyogenes
[3] = test system: S. pneumoniae (TCH8431); experiment: Library screen, CLSI broth microdilution, S. pneumoniae; assay type: cell-based, Streptococcus pneumoniae; conditions: screen against S. pneumoniae

Row | SMILES | antimicrobial activity class [1] | antimicrobial activity class [2] | antimicrobial activity class [3]
1 | Oc1c(Br)cc(Br)cc1-c1cc(Br)cc(Br)c1O [C58, bromophene] | potent (potent anti-MRSA activity (MIC≤4; MBC≤8 μg/mL)) | moderate (compounds with moderate activity (MIC=6-16; MBC≤24 μg/mL)) | potent (potent anti-MRSA activity (MIC≤4; MBC≤8 μg/mL))
2 | Oc1c(Cl)cc(Cl)cc1-c1cc(Cl)cc(Cl)c1O [C59] | potent (potent anti-MRSA activity (MIC≤4; MBC≤8 μg/mL)) | moderate (compounds with moderate activity (MIC=6-16; MBC≤24 μg/mL)) | potent (potent anti-MRSA activity (MIC≤4; MBC≤8 μg/mL))
